Measurements as given in paper doi:10.1101/2020.01.24.918458.
These are yes or no findings as the source states them, for the method shown. Binding seen in cells or lysates may run through a third protein. Here binding means that the protein was enriched with, or labelled near, the bait; the list need not be complete. For part of these data: A no says only that the protein was not detected with the bait.

Amino acid sequences for entries named in this document (tags omitted).
UniProt Q8VI36: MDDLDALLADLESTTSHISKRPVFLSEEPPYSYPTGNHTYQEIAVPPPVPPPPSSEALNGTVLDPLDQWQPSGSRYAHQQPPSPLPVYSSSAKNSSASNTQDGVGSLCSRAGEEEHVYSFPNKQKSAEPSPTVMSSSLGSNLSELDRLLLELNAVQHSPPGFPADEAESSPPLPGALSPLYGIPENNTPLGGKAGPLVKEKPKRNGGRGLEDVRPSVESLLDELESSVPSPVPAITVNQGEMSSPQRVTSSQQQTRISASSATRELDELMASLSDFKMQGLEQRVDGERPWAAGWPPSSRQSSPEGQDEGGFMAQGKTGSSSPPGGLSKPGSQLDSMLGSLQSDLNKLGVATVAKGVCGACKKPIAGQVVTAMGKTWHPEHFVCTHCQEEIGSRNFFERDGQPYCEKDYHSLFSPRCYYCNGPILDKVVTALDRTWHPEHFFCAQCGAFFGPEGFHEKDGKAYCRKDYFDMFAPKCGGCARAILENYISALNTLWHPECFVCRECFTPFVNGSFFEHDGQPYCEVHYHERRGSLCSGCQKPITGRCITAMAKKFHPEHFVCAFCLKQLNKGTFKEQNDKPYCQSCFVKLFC
UniProt Q69Z38: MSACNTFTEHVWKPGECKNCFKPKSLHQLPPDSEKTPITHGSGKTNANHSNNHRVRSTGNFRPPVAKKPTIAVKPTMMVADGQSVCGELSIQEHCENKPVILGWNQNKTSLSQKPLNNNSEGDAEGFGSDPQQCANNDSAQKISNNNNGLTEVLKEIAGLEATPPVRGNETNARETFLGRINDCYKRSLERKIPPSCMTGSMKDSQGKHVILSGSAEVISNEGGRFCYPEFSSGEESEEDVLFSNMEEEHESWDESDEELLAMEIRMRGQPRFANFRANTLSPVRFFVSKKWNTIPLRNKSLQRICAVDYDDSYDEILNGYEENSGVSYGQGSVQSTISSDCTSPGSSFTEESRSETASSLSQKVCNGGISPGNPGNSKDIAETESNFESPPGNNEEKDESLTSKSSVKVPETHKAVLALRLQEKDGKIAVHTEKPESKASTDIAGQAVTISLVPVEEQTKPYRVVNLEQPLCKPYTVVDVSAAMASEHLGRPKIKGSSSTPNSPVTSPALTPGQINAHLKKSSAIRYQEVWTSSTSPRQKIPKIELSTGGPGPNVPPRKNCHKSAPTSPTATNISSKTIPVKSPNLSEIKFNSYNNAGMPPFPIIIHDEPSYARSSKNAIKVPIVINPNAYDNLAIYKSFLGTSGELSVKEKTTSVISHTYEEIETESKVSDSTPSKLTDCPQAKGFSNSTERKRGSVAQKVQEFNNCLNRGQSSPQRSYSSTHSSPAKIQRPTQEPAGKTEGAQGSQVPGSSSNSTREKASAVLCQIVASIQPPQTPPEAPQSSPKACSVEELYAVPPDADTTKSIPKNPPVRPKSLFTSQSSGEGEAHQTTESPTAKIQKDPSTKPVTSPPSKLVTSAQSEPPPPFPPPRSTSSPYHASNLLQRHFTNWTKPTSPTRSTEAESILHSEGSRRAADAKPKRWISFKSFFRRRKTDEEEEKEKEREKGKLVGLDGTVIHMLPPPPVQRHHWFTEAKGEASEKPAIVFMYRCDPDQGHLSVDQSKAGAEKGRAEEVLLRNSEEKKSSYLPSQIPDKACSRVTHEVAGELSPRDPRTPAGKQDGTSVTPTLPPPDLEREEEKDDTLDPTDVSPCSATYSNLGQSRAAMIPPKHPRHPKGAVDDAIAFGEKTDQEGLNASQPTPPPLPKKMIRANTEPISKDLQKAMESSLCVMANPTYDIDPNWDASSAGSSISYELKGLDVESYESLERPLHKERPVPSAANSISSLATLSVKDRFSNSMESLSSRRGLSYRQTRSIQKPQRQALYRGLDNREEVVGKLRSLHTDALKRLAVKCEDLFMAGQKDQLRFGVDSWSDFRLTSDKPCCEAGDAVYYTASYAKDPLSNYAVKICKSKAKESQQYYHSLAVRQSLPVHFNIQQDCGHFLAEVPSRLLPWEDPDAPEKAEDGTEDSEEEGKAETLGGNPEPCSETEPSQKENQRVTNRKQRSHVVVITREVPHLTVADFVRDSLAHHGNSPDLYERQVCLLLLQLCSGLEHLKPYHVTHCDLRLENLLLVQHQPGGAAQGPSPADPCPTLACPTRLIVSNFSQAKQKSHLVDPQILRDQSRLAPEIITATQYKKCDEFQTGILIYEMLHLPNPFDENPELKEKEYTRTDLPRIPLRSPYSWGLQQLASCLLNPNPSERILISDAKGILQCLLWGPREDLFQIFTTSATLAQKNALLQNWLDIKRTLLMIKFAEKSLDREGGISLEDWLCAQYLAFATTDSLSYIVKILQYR
UniProt Q80U72: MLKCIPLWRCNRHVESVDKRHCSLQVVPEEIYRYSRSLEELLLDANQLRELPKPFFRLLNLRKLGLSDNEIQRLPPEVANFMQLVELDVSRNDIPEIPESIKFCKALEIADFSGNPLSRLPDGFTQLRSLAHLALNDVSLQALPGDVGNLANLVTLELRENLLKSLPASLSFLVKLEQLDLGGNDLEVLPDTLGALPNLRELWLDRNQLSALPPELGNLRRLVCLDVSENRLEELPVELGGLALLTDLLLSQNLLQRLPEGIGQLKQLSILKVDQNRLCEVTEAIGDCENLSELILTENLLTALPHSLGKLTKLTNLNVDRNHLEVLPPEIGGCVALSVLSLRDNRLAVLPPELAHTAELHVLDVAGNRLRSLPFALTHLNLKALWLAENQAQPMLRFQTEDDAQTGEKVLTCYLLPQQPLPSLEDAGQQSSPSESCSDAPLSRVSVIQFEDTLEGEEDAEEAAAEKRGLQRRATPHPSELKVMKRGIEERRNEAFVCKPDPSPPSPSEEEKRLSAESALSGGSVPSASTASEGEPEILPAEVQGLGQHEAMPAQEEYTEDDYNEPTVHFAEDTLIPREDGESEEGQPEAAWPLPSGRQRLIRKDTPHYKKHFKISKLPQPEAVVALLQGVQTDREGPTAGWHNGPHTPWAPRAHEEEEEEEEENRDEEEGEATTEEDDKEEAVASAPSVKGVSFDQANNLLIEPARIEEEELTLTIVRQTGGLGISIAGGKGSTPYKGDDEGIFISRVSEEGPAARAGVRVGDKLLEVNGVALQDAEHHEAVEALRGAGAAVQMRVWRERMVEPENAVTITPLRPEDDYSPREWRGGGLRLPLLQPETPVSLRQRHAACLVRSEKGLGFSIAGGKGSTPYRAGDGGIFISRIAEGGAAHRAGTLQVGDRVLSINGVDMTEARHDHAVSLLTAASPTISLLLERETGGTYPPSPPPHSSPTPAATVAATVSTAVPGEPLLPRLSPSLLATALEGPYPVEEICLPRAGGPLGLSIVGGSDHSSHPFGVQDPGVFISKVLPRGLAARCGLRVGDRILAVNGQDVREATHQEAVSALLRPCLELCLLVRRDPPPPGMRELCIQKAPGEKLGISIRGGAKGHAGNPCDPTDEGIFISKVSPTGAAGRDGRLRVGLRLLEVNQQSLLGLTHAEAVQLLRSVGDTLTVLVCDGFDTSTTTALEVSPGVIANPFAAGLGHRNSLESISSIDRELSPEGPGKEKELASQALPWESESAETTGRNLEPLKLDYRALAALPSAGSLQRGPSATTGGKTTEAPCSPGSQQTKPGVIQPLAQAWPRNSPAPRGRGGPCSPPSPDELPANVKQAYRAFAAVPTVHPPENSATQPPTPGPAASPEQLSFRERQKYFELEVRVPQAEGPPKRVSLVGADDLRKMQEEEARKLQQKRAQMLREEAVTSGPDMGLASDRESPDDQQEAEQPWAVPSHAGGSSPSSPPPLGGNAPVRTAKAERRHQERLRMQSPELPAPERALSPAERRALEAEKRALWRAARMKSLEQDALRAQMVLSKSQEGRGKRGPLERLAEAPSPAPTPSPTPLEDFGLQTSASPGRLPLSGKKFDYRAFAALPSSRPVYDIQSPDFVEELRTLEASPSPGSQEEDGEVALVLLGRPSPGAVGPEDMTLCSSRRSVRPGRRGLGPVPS
UniProt P26039: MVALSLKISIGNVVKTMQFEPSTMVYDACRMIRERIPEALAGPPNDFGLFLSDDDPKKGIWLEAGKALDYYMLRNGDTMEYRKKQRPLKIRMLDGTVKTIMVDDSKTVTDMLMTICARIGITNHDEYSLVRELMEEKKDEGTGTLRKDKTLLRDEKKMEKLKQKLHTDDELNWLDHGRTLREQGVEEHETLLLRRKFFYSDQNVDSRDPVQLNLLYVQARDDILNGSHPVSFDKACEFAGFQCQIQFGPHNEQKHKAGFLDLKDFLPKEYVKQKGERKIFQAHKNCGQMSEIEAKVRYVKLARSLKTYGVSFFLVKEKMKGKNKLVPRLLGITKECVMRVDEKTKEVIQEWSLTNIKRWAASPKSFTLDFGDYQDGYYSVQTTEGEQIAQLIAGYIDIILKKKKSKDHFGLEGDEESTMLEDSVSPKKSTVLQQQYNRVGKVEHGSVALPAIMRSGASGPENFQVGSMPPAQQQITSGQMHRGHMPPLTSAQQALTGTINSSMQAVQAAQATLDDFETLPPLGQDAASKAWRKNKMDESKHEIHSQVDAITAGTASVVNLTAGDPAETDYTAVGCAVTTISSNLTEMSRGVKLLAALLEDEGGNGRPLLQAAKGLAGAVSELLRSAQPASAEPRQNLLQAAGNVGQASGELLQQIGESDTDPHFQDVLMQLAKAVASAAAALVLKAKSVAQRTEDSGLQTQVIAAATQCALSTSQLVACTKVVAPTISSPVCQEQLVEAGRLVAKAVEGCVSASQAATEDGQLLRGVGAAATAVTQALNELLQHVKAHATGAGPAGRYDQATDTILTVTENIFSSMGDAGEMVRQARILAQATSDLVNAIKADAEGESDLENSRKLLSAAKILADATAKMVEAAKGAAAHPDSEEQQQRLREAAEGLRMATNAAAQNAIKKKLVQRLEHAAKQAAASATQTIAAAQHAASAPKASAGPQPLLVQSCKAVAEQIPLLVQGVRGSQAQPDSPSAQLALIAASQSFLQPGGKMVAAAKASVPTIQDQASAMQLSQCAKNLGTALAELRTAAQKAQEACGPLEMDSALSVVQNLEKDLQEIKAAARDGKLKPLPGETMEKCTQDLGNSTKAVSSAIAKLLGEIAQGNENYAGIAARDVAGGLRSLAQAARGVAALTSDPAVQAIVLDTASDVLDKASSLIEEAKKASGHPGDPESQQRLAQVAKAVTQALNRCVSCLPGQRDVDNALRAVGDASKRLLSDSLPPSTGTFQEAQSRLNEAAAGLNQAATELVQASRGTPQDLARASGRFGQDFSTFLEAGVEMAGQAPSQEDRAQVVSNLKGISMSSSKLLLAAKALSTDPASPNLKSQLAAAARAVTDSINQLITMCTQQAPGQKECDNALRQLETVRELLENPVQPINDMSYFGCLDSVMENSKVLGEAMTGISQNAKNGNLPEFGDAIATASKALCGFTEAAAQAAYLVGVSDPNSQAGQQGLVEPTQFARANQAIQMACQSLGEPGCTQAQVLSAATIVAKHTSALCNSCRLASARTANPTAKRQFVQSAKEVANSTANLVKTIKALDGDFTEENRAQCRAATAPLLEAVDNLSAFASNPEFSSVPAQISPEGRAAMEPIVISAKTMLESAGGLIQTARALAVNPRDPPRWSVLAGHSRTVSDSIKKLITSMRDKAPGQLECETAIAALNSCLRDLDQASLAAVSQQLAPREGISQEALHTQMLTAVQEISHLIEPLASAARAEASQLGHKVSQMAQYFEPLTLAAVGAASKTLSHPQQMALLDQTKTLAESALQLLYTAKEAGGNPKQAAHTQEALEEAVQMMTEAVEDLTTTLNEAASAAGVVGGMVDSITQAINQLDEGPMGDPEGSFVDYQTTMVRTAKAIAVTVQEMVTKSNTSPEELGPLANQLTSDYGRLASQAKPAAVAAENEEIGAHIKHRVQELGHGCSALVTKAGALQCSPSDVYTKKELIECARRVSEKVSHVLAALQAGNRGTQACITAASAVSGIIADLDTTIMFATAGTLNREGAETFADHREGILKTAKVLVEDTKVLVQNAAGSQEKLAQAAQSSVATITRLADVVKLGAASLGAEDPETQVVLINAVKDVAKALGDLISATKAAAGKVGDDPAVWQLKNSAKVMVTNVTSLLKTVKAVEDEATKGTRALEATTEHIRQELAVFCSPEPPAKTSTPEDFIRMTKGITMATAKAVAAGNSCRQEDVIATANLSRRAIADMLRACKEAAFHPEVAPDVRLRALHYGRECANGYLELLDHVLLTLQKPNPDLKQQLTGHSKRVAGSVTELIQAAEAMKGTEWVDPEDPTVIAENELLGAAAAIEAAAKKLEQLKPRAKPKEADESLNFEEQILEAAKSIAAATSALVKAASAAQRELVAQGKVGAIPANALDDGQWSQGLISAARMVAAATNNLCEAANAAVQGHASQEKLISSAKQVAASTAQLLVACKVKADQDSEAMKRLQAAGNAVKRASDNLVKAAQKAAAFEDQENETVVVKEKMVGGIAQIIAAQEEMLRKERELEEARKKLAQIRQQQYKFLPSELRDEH

Tests used:
Test in all cases: proximity labelling
[1] = target: T1, p130Cas (not stated (mouse and non-mouse baits used)) (UniProt Q61140)
T1 sequence: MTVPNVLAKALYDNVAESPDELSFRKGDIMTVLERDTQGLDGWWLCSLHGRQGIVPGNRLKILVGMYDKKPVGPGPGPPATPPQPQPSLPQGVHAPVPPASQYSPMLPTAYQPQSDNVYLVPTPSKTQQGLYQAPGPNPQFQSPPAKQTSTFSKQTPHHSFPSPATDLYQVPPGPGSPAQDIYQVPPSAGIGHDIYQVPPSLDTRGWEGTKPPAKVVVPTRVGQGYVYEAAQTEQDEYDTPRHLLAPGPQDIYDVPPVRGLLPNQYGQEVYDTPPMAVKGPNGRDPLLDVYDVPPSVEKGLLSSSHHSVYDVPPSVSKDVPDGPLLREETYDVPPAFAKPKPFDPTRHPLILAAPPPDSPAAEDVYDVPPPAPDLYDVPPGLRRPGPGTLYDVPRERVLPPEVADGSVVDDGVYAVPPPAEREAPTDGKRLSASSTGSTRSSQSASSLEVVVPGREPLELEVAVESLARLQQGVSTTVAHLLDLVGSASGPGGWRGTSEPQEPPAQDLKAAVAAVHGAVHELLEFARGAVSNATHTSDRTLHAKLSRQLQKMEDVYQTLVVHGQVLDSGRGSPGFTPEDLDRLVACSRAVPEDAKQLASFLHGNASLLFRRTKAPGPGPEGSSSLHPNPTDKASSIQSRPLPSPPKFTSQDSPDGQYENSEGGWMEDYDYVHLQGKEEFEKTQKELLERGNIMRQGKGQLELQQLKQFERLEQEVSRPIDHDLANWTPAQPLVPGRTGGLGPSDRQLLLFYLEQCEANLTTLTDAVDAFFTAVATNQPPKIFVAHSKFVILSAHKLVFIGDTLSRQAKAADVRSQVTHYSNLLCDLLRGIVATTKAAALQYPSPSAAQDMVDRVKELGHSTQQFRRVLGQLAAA

[2] = target: T2, α-parvin (not stated (mouse and non-mouse baits used)) (UniProt Q9EPC1)
T2 sequence: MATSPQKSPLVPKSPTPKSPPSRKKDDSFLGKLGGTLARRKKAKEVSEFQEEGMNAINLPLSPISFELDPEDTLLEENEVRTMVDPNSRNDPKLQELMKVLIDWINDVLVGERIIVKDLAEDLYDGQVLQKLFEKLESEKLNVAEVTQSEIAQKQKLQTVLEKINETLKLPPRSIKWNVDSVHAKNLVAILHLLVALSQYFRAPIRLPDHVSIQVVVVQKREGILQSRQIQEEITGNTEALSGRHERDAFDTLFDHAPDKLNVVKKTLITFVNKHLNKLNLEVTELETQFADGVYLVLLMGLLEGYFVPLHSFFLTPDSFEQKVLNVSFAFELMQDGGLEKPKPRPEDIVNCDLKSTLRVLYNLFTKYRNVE

[3] = target: paxillin (not stated (mouse and non-mouse baits used)) (UniProt Q8VI36)
[4] = target: T3, GIT1 (not stated (mouse and non-mouse baits used)) (UniProt Q68FF6)
T3 sequence: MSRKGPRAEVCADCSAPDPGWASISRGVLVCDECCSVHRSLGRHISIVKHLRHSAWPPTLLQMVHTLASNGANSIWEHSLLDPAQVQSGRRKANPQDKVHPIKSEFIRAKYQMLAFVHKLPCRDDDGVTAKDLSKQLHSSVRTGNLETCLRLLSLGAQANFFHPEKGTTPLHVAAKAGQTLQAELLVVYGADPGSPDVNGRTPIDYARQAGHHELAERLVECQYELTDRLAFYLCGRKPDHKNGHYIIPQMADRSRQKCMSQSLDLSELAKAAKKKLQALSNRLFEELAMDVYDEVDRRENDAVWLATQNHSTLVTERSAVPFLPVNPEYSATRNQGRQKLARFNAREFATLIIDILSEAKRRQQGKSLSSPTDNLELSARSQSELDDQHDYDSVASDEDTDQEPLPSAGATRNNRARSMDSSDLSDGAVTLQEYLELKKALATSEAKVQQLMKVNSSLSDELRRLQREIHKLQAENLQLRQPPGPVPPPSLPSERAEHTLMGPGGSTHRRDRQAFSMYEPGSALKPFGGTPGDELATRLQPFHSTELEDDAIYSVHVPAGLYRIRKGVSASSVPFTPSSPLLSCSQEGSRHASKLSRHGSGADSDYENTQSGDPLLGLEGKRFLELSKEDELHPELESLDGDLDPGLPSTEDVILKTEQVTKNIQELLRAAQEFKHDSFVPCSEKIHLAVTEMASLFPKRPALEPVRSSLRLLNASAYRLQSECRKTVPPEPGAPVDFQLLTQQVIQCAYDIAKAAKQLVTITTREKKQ

[5] = target: T4, ILK (not stated (mouse and non-mouse baits used)) (UniProt O55222)
T4 sequence: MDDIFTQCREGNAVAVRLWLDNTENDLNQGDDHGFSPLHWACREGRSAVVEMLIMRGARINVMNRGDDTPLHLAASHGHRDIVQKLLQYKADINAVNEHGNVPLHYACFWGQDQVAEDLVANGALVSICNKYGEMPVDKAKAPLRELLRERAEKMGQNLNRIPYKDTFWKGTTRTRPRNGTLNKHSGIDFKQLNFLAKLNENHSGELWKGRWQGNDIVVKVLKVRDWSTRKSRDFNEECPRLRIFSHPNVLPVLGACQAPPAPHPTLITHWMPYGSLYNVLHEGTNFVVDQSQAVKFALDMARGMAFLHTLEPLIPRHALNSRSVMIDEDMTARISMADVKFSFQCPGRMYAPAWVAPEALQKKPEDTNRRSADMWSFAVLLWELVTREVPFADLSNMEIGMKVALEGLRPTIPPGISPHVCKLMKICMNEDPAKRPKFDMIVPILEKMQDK

[6] = target: PINCH (not stated (mouse and non-mouse baits used)) (UniProt Q99JW4)

Substance | binding [1] | binding [3] | further results
FAK (from UniProt P34152 1-1052) | binds | – | –
PINCH (from UniProt Q99JW4 1-325) | – | – | binding [2]: binds
Peak1 (from UniProt Q69Z38 1-1735) | binds | binds | –
erbin (from UniProt Q80TH2 1-1402) | – | – | binding [4]: no binding
paxillin (from UniProt Q8VI36 1-591) | binds | – | –
scribble (from UniProt Q80U72 1-1665) | – | binds | binding [4]: binds
talin-1 (from UniProt P26039 1-2541) | – | binds | binding [5]: binds; binding [2]: binds; binding [6]: binds
